Test results taken from paper PMC10857777.
These are yes or no findings as the source states them, for the method shown. Binding seen in cells or lysates may run through a third protein. Some results given as binding are weak or reduced against the parent protein; the word gives no strength.

By UniProt entry, the sequences of proteins in these tests, tags left out.
UniProt Q92993: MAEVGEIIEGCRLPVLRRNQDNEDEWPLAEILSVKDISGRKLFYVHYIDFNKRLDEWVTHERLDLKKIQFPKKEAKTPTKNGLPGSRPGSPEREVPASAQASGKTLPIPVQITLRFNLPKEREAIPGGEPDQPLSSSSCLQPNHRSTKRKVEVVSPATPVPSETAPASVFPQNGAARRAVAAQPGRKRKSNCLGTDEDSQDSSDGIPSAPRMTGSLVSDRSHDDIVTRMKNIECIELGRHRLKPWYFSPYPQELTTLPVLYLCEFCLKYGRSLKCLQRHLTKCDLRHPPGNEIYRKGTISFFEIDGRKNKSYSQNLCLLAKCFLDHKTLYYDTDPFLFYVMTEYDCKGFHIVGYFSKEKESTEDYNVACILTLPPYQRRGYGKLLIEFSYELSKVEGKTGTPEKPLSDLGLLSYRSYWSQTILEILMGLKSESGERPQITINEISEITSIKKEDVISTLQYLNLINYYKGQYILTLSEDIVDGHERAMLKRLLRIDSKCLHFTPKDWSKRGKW

Target: T1, Glycerol-3-phosphate acyltransferase 3 (human (endogenous in HCT-116)) (UniProt Q53EU6)
T1 sequence: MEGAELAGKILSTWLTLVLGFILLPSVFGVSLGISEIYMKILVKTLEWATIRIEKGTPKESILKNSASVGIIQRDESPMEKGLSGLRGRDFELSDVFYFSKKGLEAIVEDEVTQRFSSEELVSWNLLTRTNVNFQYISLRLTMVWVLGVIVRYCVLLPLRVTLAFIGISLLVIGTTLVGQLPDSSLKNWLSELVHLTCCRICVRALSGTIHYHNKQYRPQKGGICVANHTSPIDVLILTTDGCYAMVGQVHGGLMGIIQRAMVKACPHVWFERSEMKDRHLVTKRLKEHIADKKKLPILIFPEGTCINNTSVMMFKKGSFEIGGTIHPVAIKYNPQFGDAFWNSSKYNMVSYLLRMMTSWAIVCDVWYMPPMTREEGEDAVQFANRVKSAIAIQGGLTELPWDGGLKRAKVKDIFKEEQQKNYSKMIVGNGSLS
Assay: co-IP; endogenous proteins; cells lysed with NP-40 lysis buffer; Protein A&G magnetic beads; anti-rabbit and mouse IgG as negative controls; immunoblot

- binding: binds
Substance: TIP60 (from UniProt Q92993 1-513) (enzyme)
